The text below walks through data of publication PMC11754673.

Chains of the proteins cited; added tags and fusions are not shown.
UniProt Q924T3: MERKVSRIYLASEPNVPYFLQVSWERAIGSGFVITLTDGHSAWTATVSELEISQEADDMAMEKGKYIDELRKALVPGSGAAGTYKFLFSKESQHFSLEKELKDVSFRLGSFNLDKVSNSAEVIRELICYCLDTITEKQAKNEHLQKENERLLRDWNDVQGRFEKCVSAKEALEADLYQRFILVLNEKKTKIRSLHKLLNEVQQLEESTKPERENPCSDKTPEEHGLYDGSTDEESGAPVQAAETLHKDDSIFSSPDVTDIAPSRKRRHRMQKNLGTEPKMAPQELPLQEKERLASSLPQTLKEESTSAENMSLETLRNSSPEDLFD

Residue numbers refer to the chain shown, from its start. Results are given in words; binding and its absence hold for the method and conditions named. Some entries that bind do so weakly or less than the wild type. Sequences can lack the tags named with a protein.

Experiment [1] has as its target T1, mouse DNA ligase 4 (Lig4) K273S, C-terminal poly His tag (mouse) (UniProt Q8BTF7).
T1 sequence: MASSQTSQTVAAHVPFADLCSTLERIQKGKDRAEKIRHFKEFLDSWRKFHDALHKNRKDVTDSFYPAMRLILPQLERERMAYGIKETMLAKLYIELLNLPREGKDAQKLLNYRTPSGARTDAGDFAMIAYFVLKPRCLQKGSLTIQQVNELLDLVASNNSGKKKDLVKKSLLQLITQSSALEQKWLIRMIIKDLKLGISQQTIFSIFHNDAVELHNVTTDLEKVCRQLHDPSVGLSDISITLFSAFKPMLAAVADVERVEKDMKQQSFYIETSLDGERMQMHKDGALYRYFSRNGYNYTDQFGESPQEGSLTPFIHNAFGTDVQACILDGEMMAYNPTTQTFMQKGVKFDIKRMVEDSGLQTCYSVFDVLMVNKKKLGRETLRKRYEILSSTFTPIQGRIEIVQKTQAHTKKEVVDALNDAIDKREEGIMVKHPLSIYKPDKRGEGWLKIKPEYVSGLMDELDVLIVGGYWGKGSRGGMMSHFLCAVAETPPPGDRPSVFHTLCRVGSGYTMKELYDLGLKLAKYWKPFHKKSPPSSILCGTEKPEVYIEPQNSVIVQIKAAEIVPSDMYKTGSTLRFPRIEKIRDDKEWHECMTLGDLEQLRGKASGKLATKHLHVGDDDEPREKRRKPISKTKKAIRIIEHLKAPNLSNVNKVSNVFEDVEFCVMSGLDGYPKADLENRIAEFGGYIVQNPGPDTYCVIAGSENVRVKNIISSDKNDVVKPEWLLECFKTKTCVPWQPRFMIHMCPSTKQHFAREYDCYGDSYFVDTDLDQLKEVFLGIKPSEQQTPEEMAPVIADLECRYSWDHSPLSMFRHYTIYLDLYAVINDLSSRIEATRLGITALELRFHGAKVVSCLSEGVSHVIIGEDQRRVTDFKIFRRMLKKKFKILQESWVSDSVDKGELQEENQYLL
The experiment can be described thus: co-purification (Ni-NTA, sepharose Q); Lig4 with a C-terminal poly His tag and untagged XRCC4 co-expressed in E. coli Rosetta 2 (pLysS), induced at 15°C for 16 h; complex purified by Ni-NTA followed by sepharose Q chromatography.

The target of experiment [2] is T2, mouse DNA ligase 4 (Lig4) wild type, C-terminal poly His tag (mouse) (UniProt Q8BTF7).
T2 sequence: T1 sequence with S273K
The description is as above.

For the substance “mouse XRCC4, untagged (from UniProt Q924T3 1-326)”, the binding entry in experiment [1] and in experiment [2] was “binds” each time.
